{
  "source": "paper PMC8233316",
  "biological_target": "T1, CFAP161 (yeast two-hybrid fusion) (mouse) (UniProt Q6P8Y0)",
  "T1 sequence": "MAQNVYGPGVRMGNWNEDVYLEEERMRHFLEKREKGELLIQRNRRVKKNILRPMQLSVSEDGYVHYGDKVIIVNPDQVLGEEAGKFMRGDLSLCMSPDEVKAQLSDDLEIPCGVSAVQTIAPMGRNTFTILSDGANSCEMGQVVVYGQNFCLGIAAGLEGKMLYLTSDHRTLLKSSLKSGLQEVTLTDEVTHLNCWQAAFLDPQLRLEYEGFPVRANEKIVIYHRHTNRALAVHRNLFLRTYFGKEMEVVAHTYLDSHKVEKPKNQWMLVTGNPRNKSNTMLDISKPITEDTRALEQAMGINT",
  "experiment": "two-hybrid; Matchmaker Gold Yeast Two-Hybrid System (Clontech); details in Supplemental Methods",
  "note": "These are yes or no findings as the source states them, for the method shown. Binding can be weak; no strength is given. Sequences can lack the tags named with a protein.",
  "data": [
    {"substance": "KIAA0556 (yeast two-hybrid fusion)", "values": [
      {"measurement": "binding", "value": "binds"}
    ]}
  ]
}
